# Library screening results

Measurements from “University of Dundee, Small-Polar-MMV Screening Library” (2021), ChEMBL document CHEMBL3988442.

Results are given as percent effect. The controls that fix the scale are not given in the record; negative values are as filed. The compounds are a random part of those screened. Two or more numbers in one place are separate tests of the same structure; such repeats can differ widely.

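Viability assay of Plasmodium falciparum sporozoites; the read-out is not stated. The concentration is filed as 10 mM, unlikely as a test dose, so the dose is not known. Higher reads as lower viability (inferred: compounds with an IC50 in retests scored well above the rest). Strong results were mostly tested again. Of about 34,000 compounds tested this way, about 280 (0.84%) reached 50% or more in at least one test.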

structure,percent effect
Cc1c(NC(=O)c2ncn[nH]2)cccc1C(=O)NC(C)(C)C,-5.277
CC(C)c1n[nH]c(C2CN(CC(=O)N(C)Cc3ccco3)CCO2)n1 (stereo not given),-14.56
Cc1nc2ccccc2nc1CN1CCc2c(nc(C3CC3)n2C)C1,-9.933 & -2.839
CC(C)(C)n1cc(C2=CCN(CCNC(N)=O)CC2)cn1,-28.2 & -25.06
OCc1ccc(Cl)c(NCc2cccnc2)c1,-1.691
CCC(=O)N1CCC2(COCc3c(C)nc(N(C)C)nc32)C1 (stereo not given),-5.862
CCOc1ccc(Cl)cc1C1CCCCN1.Cl (stereo not given),-0.4541
Cc1nc(CN2CCCC(N(C)Cc3nc(CC(C)C)no3)C2)no1 (stereo not given),5.574
Cc1nnc(CSc2ccccn2)o1,-11.88
CCc1nccn1C1CCCN(C(=O)c2csc(C3CC3)n2)C1 (stereo not given),-3.103
O=C(Cc1ccc2c(c1)OCCO2)N1CCCC(n2cncn2)C1 (stereo not given),8.446 & 5.568 & 21.18
CC1CN(C(=O)NCCCn2cncn2)CCO1 (stereo not given),-2.638
O=C(NCCCO)C1(CC2CC(c3ccc(F)cc3)=NO2)CCOCC1 (stereo not given),13.76
Cc1ccc2c(n1)N(C)CCN(Cc1cnn(C)c1)C2,10.53
Cc1cc(C2CCCN(CCc3ccc4c(c3)CCO4)C2)n[nH]1 (stereo not given),5.73
COc1ccc(C)cc1C(C)NC(=O)NCCCn1cncn1 (stereo not given),-4.412
CC1CN(Cc2ccccn2)CCN1c1ccc2nncn2n1 (stereo not given),13.4
c1cc(-c2cnc(NC3CC3)nc2[C@H]2CCCO2)ccn1,-0.3122
CCOc1cccc2c1OCC(C(=O)NS(=O)(=O)c1ccc(Br)s1)=C2,-7.034
O=C(CCc1nc(-c2ccccn2)no1)N1CCCC1c1ccsc1 (stereo not given),21.46
[H][C@@]12CCCO[C@]1([H])[C@@H](N(C)Cc1cncnc1)CN2C(=O)c1ccc[nH]1,10.29
Fc1ccc(CN2CCC3(CC2)CCN(c2ncccn2)CC3)cc1.O=C(O)C(F)(F)F.O=C(O)C(F)(F)F,0.1189
CN(CCSc1nncn1C(C)(C)C)c1ccccc1,-11.85
CC(=O)N(Cc1ncc(C)o1)C1CCN(Cc2noc(C)n2)C1 (stereo not given),-4.393
O=C(O)C(F)(F)F.[H][C@@]12CCN(CC3CC3)[C@@]1([H])CCN2C(=O)c1cccc(C#N)c1,7.793
Cc1nc(C2CCN(C[C@H](C)CO)CC2)cc(N2CCOCC2)n1,9.372
Cc1cc(C)c2nc(CNC3CCCNC3=O)cc(O)c2c1 (stereo not given),-12.71
c1cncc(-c2noc(CN3CCc4cncnc4C3)n2)c1,1.959
CN(Cc1ccc(F)cc1)[C@@H]1CN(C(=O)c2cccs2)C[C@H]1O,-4.005
CC(O)CN1CCC(CNCc2cccc(OC(C)C)c2)CC1 (stereo not given),12.16
Cc1nn(C)c(N(C)C)c1CNCCCN(C)S(C)(=O)=O,6.28
Fc1cnc(N2CCCC3(CN(Cc4ccncc4)CCO3)C2)nc1.O=C(O)C(F)(F)F.O=C(O)C(F)(F)F (stereo not given),-7.728
Cn1c2c(ccc1=O)CC(NS(C)(=O)=O)CC2 (stereo not given),-13.73
Cc1cc(C(F)(F)F)n2nc(C3CCCN3C3CCSCC3)cc2n1.O=C(O)CC(O)(CC(=O)O)C(=O)O (stereo not given),1.283
Cc1cc(C)n(CC2CN(CC(=O)NC3(C#N)CCCC3)CCO2)n1 (stereo not given),-5.986
CCn1cncc1CNc1ccc(-c2nc(CC(C)C)no2)cn1,37.16 & 35.79
[H][C@]12CC[C@@]3(N=C(CC)NC3=O)[C@@]1([H])CN(C(=O)NCc1ccccc1)C2,-24.05
CN(C)c1ncc(-c2ccncc2)c(CCNC(=O)C2CC2)n1,3.432
CC(=O)N(Cc1ncc(C)o1)C1CCN(CCCc2cnn(C)c2)C1 (stereo not given),-7.598
c1ccc2sc(N3CCOC(Cn4cccn4)C3)nc2c1 (stereo not given),9.76
c1ccc2oc(N3CCCC3Cn3cncn3)nc2c1 (stereo not given),7.25
Cc1cccc(CNC(Cc2ccsc2)c2nccs2)n1 (stereo not given),1.686
CC(C)CC(=O)N1CC(=O)c2sc(Nc3ccc(C#N)cc3)nc2C1,8.721
Cc1nc(C2CCN(C(=O)COC(C)C)CC2)cc(N2CCOCC2)n1,-9.372
COc1ccc(F)c(CN2CCCC3(CCN(C(=O)CSC)C3)C2)c1 (stereo not given),-2.554 & 2.665
CCn1cc(NC(=O)NCC(c2cccs2)N(C)C)cn1 (stereo not given),-20.01 & -3.56 & -5.606
Cc1cccc2cc(C(=O)N3CCSCC3)n(C)c12,3.432
CC(C)n1nc(CN2CCCC2=O)c2c1CN(C(=O)c1ccc[nH]1)C2,4.378
COc1ccccc1CNC(=O)Cn1nc(-c2ccc(F)cc2)oc1=O,4.403
CCN(Cc1noc(CC(C)C)n1)Cc1cc2ccc(F)cc2[nH]c1=O,-11.54
CCC1=NN2C(=N)/C(=C\c3cccn3-c3ccc(Br)cc3)C(=O)N=C2S1,4.745
Cc1noc(NC(=O)c2ccc(Br)o2)n1,2.603
CC(C)NC(=O)NCc1ccc(C(=O)NC(C)Cn2cccn2)cc1 (stereo not given),6.701
O=C(NCCSCc1ccc(Br)s1)C1CCCN(C(=O)c2cccs2)C1 (stereo not given),-2.309
O=C(O)C(F)(F)F.[H][C@]12CC[C@@]3(N=C(C)N(CCOC)C3=O)[C@@]1([H])CN(Cc1ccccc1F)C2,3.61
O=C1CCc2cc(NC(=O)C3CCCN3c3nccs3)ccc2N1 (stereo not given),4.722
Cc1cnn(CC2CCCN2Cc2nnc(C3CC3)o2)c1 (stereo not given),16.64
COc1cccc(C(=O)Oc2cc(=O)n3cccc(C)c3n2)c1,-9.718
O=C(c1ccsc1)N1CCc2c(CNc3ncccn3)n[nH]c2C1,-14.61
c1ccc(-c2nnc(CN3CCOC(Cn4cccn4)C3)o2)cc1 (stereo not given),-1.216
COc1ccc(C(=O)NCC(c2cccn2C)N2CCCC2)cc1OC (stereo not given),12.44 & -3.671 & -23.9
CC(C)c1n[nH]c(C2CN(C(=O)c3cc4c(s3)CCC4)CCO2)n1 (stereo not given),1.063 & 64.57 & -4.27
CCc1ccc(CN2CCC(CNC(=O)c3ccc(C)nc3)C2)nc1 (stereo not given),-1.491
CCc1nc(CNC(=O)Nc2ccc(C(=O)NC)cc2C)cs1,-6.652
O=C(O)C(F)(F)F.[H][C@@]12CCCO[C@]1([H])[C@H](NC(=O)c1cnoc1C)CN(Cc1ccoc1)C2,13.21
CCn1[nH]c(C)c2c(C(F)(F)C(F)(F)F)cc(=O)nc1-2,-5.658
CCN(Cc1nc2c(cnn2C)c(=O)[nH]1)c1ccc(F)cc1,-0.8748
CCCOc1cc(CNC(=O)Nc2cccnc2N2CCCC2)ccn1,2.08
COc1cc(N2CCC3(CCN(Cc4csc(C)n4)C3)CC2)ncn1.O=C(O)C(F)(F)F,-5.254
O=C(C1CCCN(CCc2ccc3c(c2)CCO3)C1)N1CCCC1 (stereo not given),-4.297
CCC(C)CN(C)C(=O)NCc1ccccc1-n1cccn1 (stereo not given),-3.657
CN(C)c1cc(C(=O)N2CCCCC2)ccn1,19.9
O=C(Cc1csc(-c2ccco2)n1)N1CCN(c2nccs2)CC1,6.662
CNC(C(=O)OC)c1cc(F)ccc1F.Cl (stereo not given),-0.5796
CC(NC(=O)CCCOc1ccc(F)cc1)c1nnc2n1CCC2 (stereo not given),7.405
O=C(O)C(F)(F)F.O=C(c1ccc[nH]1)N1CCn2cc(CN3CCCC3)nc2C1,-10.96
CC(=O)N1CCC2(CCN(CC(C)C)C2)C1 (stereo not given),2.737
CNc1cc(C(=O)N(C)Cc2cc(-c3cccs3)n[nH]2)ccn1,-21.54 & -15.95 & -0.08772
COc1ccccc1OCCc1nnc(NC(=O)C2CC23CCC3)s1 (stereo not given),16.02 & 9.945 & 22.72
Cc1ccsc1C(=O)N1Cc2ccccc2C2(CCN(C)CC2)C1,-1.23
Cc1nnc(CN(Cc2ccc3c(c2)OCO3)C2CCC(C)CC2)o1 (stereo not given),11.24
[H][C@@]12CCN(C(C)=O)C[C@@]1([H])[C@H](C(=O)Nc1cccnc1C)CCO2,5.736
CC(C)(CNC(=O)Nc1nccs1)N1CCOCC1,-4.922 & -6.443
O=C(CCCOc1ccccc1)N1CCCC(n2cncn2)C1 (stereo not given),-3.81
Cc1ccc(C(=O)N2CCCC(c3nncn3C)C2)c(C)c1 (stereo not given),-3.912
Cn1ccnc(Sc2ccc(O)cc2)c1=O,-1.434
CC(=O)N1CCCC(c2ccc(Br)cn2)C1 (stereo not given),-2.896
Cc1cc(C)n(C2CCCN(C(=O)c3cn4cccnc4n3)C2)n1 (stereo not given),7.099
Cc1cnc(C(=O)N2CCCN(Cc3csc(C)n3)CC2)cn1,-16.56
COCCCNC(=O)N1CCCC(c2nncn2C)C1 (stereo not given),-2.363
Cc1cnn(CCC(=O)N2CCN(c3ccc(C#N)cn3)CC2)c1,6.904

7 of the entries, repeated:

| structure | percent effect |
|---|---|
| `Cc1nc(C2CCN(C[C@H](C)CO)CC2)cc(N2CCOCC2)n1` | 9.372 |
| `CC(C)n1nc(CN2CCCC2=O)c2c1CN(C(=O)c1ccc[nH]1)C2` | 4.378 |
| `CNC(C(=O)OC)c1cc(F)ccc1F.Cl` (stereo not given) | -0.5796 |
| `COCCCNC(=O)N1CCCC(c2nncn2C)C1` (stereo not given) | -2.363 |
| `Cc1nnc(CN(Cc2ccc3c(c2)OCO3)C2CCC(C)CC2)o1` (stereo not given) | 11.24 |
| `O=C(CCc1nc(-c2ccccn2)no1)N1CCCC1c1ccsc1` (stereo not given) | 21.46 |
| `CC(C)NC(=O)NCc1ccc(C(=O)NC(C)Cn2cccn2)cc1` (stereo not given) | 6.701 |